Counter-ions that a name gives are not always drawn.
System: potassium contracture, left circumflex branch (coronary artery)
Experiment: isolated coronary artery, action on potassium contracture (Magnus method)
Conditions: dog coronary artery, 50% inhibition of maximum reaction, reciprocal logarithm of molar concentration
Experimental: Each of the test drugs was used in a concentration of 10^-9 to 4×10^-4 mole/1000 ml (M). (3) Isolated coronary artery Using the left circumflex branch of a dog, the action of the test drugs on potassium contracture was examined.

Structure (SMILES): CC(C)NCC(O)COc1cccc2ccccc12 (stereo not shown) [Comparative drug I, propranolol hydrochloride, reference compound]
- (3) pD'2: 4.1

— patent US4394382A, “Dihydrobenzopyran compounds and pharmaceutical composition comprising said compounds” (Kowa Company, Ltd., priority 1980, dated 1983)
